# Measured values taken from the supplement of paper PMC4604168 (melanoma cell lines).
# The other results are listed elsewhere or left out. Repeats are few or missing, and single values can be far off.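 The apoptosis fraction was the count of cleaved-PARP antibody-stained nuclei relative to all DNA-stained nuclei, imaged in 1,536-well plates. Screening doses were set so most cells survived, and baseline and induced cleaved-PARP levels vary greatly across cell lines.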
# Assays:
# Assay in all cases: cleaved PARP positive nuclei fraction relative to DMSO control; melanoma cells; higher = more apoptosis
# Settings in all cases: library dose: low library concentration; 72 h
# CBRC034 = test system: CBRC034 (line from a melanoma biopsy)
# COLO792 = test system: COLO792
# COLO800 = test system: COLO800
# COLO829 = test system: COLO829
# G361 = test system: G361
# IPC-298 = test system: IPC-298
# IST-MEL1 = test system: IST-MEL1
# LOXIMVI = test system: LOXIMVI
# MEL-HO = test system: MEL-HO
# LB2518-MEL = test system: LB2518-MEL
SMILES,cleaved PARP positive nuclei fraction (CBRC034) [%],cleaved PARP positive nuclei fraction (COLO792) [%],cleaved PARP positive nuclei fraction (COLO800) [%],cleaved PARP positive nuclei fraction (COLO829) [%],cleaved PARP positive nuclei fraction (G361) [%],cleaved PARP positive nuclei fraction (IPC-298) [%],cleaved PARP positive nuclei fraction (IST-MEL1) [%],cleaved PARP positive nuclei fraction (LOXIMVI) [%],cleaved PARP positive nuclei fraction (MEL-HO) [%],cleaved PARP positive nuclei fraction (LB2518-MEL) [%]
"C[C@@H](N)c1ccc(C(=O)Nc2ccnc3[nH]ccc23)cc1 + CN(c1ncccc1CNc1nc(Nc2ccc3c(c2)CC(=O)N3)ncc1C(F)(F)F)S(C)(=O)=O [PF562271] (first compound 0.4 µM, partner dose 0.08 µM)",152,162,148,217,154,86.9,64.1,381,225,
"C[C@]1(O)C[C@@H](c2nc(-c3ccc4ccc(-c5ccccc5)nc4c3)c3c(N)nccn32)C1 + Nc1nc(F)nc2c1ncn2[C@@H]1O[C@H](CO)[C@@H](O)[C@@H]1O [fludarabine] (first compound 0.4 µM, partner dose 0.2 µM)",99.8,123,256,74.1,164,96.1,58,119,46.7,
"CS(=O)(=O)c1ccc(C(=O)Nc2ccc(Cl)c(-c3ccccn3)c2)c(Cl)c1 [vismodegib] + Nc1ncn([C@H]2C[C@H](O)[C@@H](CO)O2)c(=O)n1 [decitabine] (first compound 1 µM, partner dose 0.1 µM)",125,77.8,83.2,101,95.2,258,207,38.3,99.7,128
"COc1ccc(C2=N[C@@H](c3ccc(Cl)cc3)[C@@H](c3ccc(Cl)cc3)N2C(=O)N2CCNC(=O)C2)c(OC(C)C)c1 [Nutlin-3] + CN1CCN(c2ccc3nc(-c4c(N)c5c(F)cccc5[nH]c4=O)[nH]c3c2)CC1 [Dovitinib] (first compound 0.1 µM, partner dose 0.1 µM)",176,49.7,67.2,64.3,90.1,73.1,67.2,79.4,32.7,204
"CN(c1ncccc1CNc1nc(Nc2ccc3c(c2)CC(=O)N3)ncc1C(F)(F)F)S(C)(=O)=O + COCC[n+]1c2c(n(Cc3cnccn3)c1C)C(=O)c1ccccc1C2=O [YM155] (first compound 0.08 µM, partner dose 0.0004 µM)",108,85.9,86.7,119,48.5,182,135,148,167,
"NC(=O)c1ccc(N(C(N)=O)c2c(F)cccc2F)nc1-c1ccc(F)cc1F + CO[C@H]1C[C@@H]2CC[C@@H](C)[C@@](O)(O2)C(=O)C(=O)N2CCCC[C@H]2C(=O)O[C@H]([C@H](C)C[C@@H]2CC[C@@H](OCCO)[C@H](OC)C2)CC(=O)[C@H](C)/C=C(\C)[C@@H](O)[C@@H](OC)C(=O)[C@H](C)C[C@H](C)/C=C/C=C/C=C/1C [everolimus] (first compound 0.4 µM, partner dose 0.02 µM)",88.2,129,82.9,134,87.1,115,78.6,129,198,
"NC(=O)c1ccc(N(C(N)=O)c2c(F)cccc2F)nc1-c1ccc(F)cc1F + CCCS(=O)(=O)Nc1ccc(F)c(C(=O)c2c[nH]c3ncc(Cl)cc23)c1F [PLX4720] (first compound 0.4 µM, partner dose 0.08 µM)",58.3,121,96.1,95.1,120,92.3,90,116,181,101
"CCN(CC)CCNC(=O)c1c(C)[nH]c(/C=C2\C(=O)Nc3ccc(F)cc32)c1C [sunitinib] + CS(=O)(=O)CCNCc1ccc(-c2ccc3ncnc(Nc4ccc(OCc5cccc(F)c5)c(Cl)c4)c3c2)o1 [lapatinib] (first compound 0.4 µM, partner dose 0.8 µM)",26.9,184,83.7,88.9,97.6,88.2,41.9,80.6,23.3,
"CC(=O)O[C@@]12CO[C@@H]1C[C@H](O)[C@@]1(C)C(=O)[C@H](O)C3=C(C)[C@@H](OC(=O)[C@H](O)[C@@H](NC(=O)OC(C)(C)C)c4ccccc4)C[C@@](O)([C@@H](OC(=O)c4ccccc4)[C@H]21)C3(C)C [Docetaxel] + O=C(O)[C@@H]1[O][Sb](=[O])([O][Sb]2(=[O])[O][C@H]([C@H](O)CO)[C@H](O)[C@H](C(=O)O)[O]2)[O][C@H]([C@H](O)CO)[C@@H]1O [stibogluconate] (first compound 0.0001 µM, partner dose 2 µM)",154,464,401,286,487,67.1,99.9,144,181,158
"Cn1sc(=O)n(Cc2ccccc2)c1=O + Nc1ccn([C@@H]2O[C@H](CO)[C@@H](O)C2(F)F)c(=O)n1 [gemcitabine] (first compound 0.4 µM, partner dose 0.0004 µM)",220,80,71.5,134,138,166,195,121,174,
"CS(=O)(=O)c1ccc(C(=O)Nc2ccc(Cl)c(-c3ccccn3)c2)c(Cl)c1 [vismodegib] + Cn1cc(/C=C2\C(=O)Nc3cccnc32)c2ccccc21 [GW441756] (first compound 1 µM, partner dose 0.4 µM)",,86.8,33.5,118,110,265,40.3,15.2,,122
"NC1(c2ccc(-c3nc4ccn5c(=O)[nH]nc5c4cc3-c3ccccc3)cc2)CCC1 + N#Cc1c(O)c2c(-c3ccc(-c4ccccc4O)cc3)csc2[nH]c1=O [A769662] (first compound 0.4 µM, partner dose 2 µM)",,208,244,76.3,59.2,112,131,108,,66.6
"NC1(c2ccc(-c3nc4ccn5c(=O)[nH]nc5c4cc3-c3ccccc3)cc2)CCC1 + Oc1cc(-c2nc(-c3ccccc3)[nH]c2-c2ccncc2)ccc1Cl [L779450] (first compound 0.4 µM, partner dose 0.2 µM)",,15.7,118,76.4,91.7,105,134,41.1,,101
"NC(=O)c1ccc(N(C(N)=O)c2c(F)cccc2F)nc1-c1ccc(F)cc1F + Cc1cc([N+](=O)[O-])ccc1NS(=O)(=O)c1cc(Cl)ccc1Cl [FH535] (first compound 0.4 µM, partner dose 1 µM)",,82.5,29.2,111,124,47.7,209,124,,42.4
"CC(=O)O[C@@]12CO[C@@H]1C[C@H](O)[C@@]1(C)C(=O)[C@H](O)C3=C(C)[C@@H](OC(=O)[C@H](O)[C@@H](NC(=O)OC(C)(C)C)c4ccccc4)C[C@@](O)([C@@H](OC(=O)c4ccccc4)[C@H]21)C3(C)C [Docetaxel] + COc1ccc(-c2ccc3c(N4CCOCC4)nc(N4C[C@@H](C)O[C@@H](C)C4)nc3n2)cc1CO [KU0063794] (first compound 0.0001 µM, partner dose 0.02 µM)",,315,86.8,225,409,173,45.6,170,,126
"Cn1cnc2c(F)c(Nc3ccc(Br)cc3Cl)c(C(=O)NOCCO)cc21 [selumetinib] + c1cc(-c2cnn3cc(-c4ccc(OCCN5CCCCC5)cc4)cnc23)ccn1 [Dorsomorphin] (first compound 0.015 µM, partner dose 0.4 µM)",,20.9,67.9,67.6,234,105,121,173,,211
"CS(=O)(=O)c1ccc(C(=O)Nc2ccc(Cl)c(-c3ccccn3)c2)c(Cl)c1 [vismodegib] + COc1cc(N2CCC(N3CCN(C)CC3)CC2)ccc1Nc1ncc(Cl)c(Nc2ccccc2S(=O)(=O)C(C)C)n1 [NVP-TAE684] (first compound 1 µM, partner dose 0.08 µM)",,97.4,137,181,281,97.5,109,67.9,,77.2
"COc1ccc(C2=N[C@@H](c3ccc(Cl)cc3)[C@@H](c3ccc(Cl)cc3)N2C(=O)N2CCNC(=O)C2)c(OC(C)C)c1 [Nutlin-3] + COc1cc(N2CCC(N3CCN(C)CC3)CC2)ccc1Nc1ncc(Cl)c(Nc2ccccc2S(=O)(=O)C(C)C)n1 [NVP-TAE684] (first compound 0.1 µM, partner dose 0.08 µM)",,65.5,142,234,48.5,97.5,88.2,77.5,,69.5
"Cn1cnc2c(F)c(Nc3ccc(Br)cc3Cl)c(C(=O)NOCCO)cc21 [selumetinib] + CCc1ccc(CCOc2ccc(CC3SC(=O)NC3=O)cc2)nc1 [pioglitazone] (first compound 0.015 µM, partner dose 2 µM)",,135,89.8,134,137,213,111,136,,357
"CCN(CC)CCNC(=O)c1c(C)[nH]c(/C=C2\C(=O)Nc3ccc(F)cc32)c1C [sunitinib] + COc1ccc2c(c1)CCC1C2CCC2(C)C(NCCCCCCN3C(=O)C=CC3=O)CCC12 [U73122] (first compound 0.4 µM, partner dose 0.4 µM)",,147,126,50.1,76.2,104,29,173,,129
"C[C@@H](N)c1ccc(C(=O)Nc2ccnc3[nH]ccc23)cc1 + CCN(CC)CCCCNc1ncc2cc(-c3cc(OC)cc(OC)c3)c(NC(=O)NC(C)(C)C)nc2n1 [PD173074] (first compound 0.4 µM, partner dose 0.1 µM)",,237,244,149,109,62.1,83.5,136,,224

# Part of the list above, set out differently.
SMILES	cleaved PARP positive nuclei fraction (CBRC034) [%]	cleaved PARP positive nuclei fraction (COLO792) [%]	cleaved PARP positive nuclei fraction (COLO800) [%]	cleaved PARP positive nuclei fraction (COLO829) [%]	cleaved PARP positive nuclei fraction (G361) [%]	cleaved PARP positive nuclei fraction (IPC-298) [%]	cleaved PARP positive nuclei fraction (IST-MEL1) [%]	cleaved PARP positive nuclei fraction (LOXIMVI) [%]	cleaved PARP positive nuclei fraction (MEL-HO) [%]	cleaved PARP positive nuclei fraction (LB2518-MEL) [%]
NC1(c2ccc(-c3nc4ccn5c(=O)[nH]nc5c4cc3-c3ccccc3)cc2)CCC1 + N#Cc1c(O)c2c(-c3ccc(-c4ccccc4O)cc3)csc2[nH]c1=O [A769662] (first compound 0.4 µM, partner dose 2 µM)		208	244	76.3	59.2	112	131	108		66.6
NC1(c2ccc(-c3nc4ccn5c(=O)[nH]nc5c4cc3-c3ccccc3)cc2)CCC1 + Oc1cc(-c2nc(-c3ccccc3)[nH]c2-c2ccncc2)ccc1Cl [L779450] (first compound 0.4 µM, partner dose 0.2 µM)		15.7	118	76.4	91.7	105	134	41.1		101
